# Assay: Solubility in phosphate buffer at pH 7.4 after 24 hrs
structure (smiles),measurement,value
C[C@H](Nc1nc(NC[C@@H](O)CO)c(Cl)c(Nc2cc(C3CC3)[nH]n2)n1)c1ccc(F)cc1,solubility at 24 h,19 µM

# Reference: ChEMBL document CHEMBL1155933, “Identification of 4-aminopyrazolylpyrimidines as potent inhibitors of Trk kinases” (J Med Chem, 2008)
